Measured values as given in PMC4121237, “Engineering Neprilysin Activity and Specificity to Create a Novel Therapeutic for Alzheimer’s Disease” (PLoS ONE, 2014).

Tested on: Aβ1–40
Assay: MALDI MS analysis of cleavage products
Type: biochemical
Settings: 10 µM Aβ1–40, 37°C, 10, 60 and 360 min

Molecule | predominant / preferential cleavage site(s) in Aβ1–40
wild-type NEP: soluble extracellular domain (amino acids 52–749) of wild type human NEP (neprilysin), tagged, recombinantly expressed (protein, UniProt P08473 52-749, looked up, fragment, extracellular domain tag, soluble extracellular domain (amino acids 52–749) of wild type human NEP (neprilysin), tagged, recombinantly expressed) YDDGICKSSDCIKSAARLIQNMDATTEPCTDFFKYACGGWLKRNVIPETSSRYGNFDILRDELEVVLKDVLQEPKTEDIVAVQKAKALYRSCINESAIDSRGGEPLLKLLPDIYGWPVATENWEQKYGASWTAEKAIAQLNSKYGKKVLINLFVGTDDKNSVNHVIHIDQPRLGLPSRDYYECTGIYKEACTAYVDFMISVARLIRQEERLPIDENQLALEMNKVMELEKEIANATAKPEDRNDPMLLYNKMTLAQIQNNFSLEINGKPFSWLNFTNEIMSTVNISITNEEDVVVYAPEYLTKLKPILTKYSARDLQNLMSWRFIMDLVSSLSRTYKESRNAFRKALYGTTSETATWRRCANYVNGNMENAVGRLYVEAAFAGESKHVVEDLIAQIREVFIQTLDDLTWMDAETKKRAEEKALAIKERIGYPDDIVSNDNKLNNEYLELNYKEDEYFENIIQNLKFSQSKQLKKLREKVDKDEWISGAAVVNAFYSSGRNQIVFPAGILQPPFFSAQQSNSLNYGGIGMVIGHEITHGFDDNGRNFNKDGDLVDWWTQQSASNFKEQSQCMVYQYGNFSWDLAGGQHLNGINTLGENIADNGGLGQAYRAYQNYIKKNGEEKLLPGLDLNHKQLFFLNFAQVWCGTYRPEYAVNSIKTDVHSPGNFRIIGTLQNSAEFSEAFHCRKNSYMNPEKKCRV | Lys^16-Leu^17, Leu^17-Val^18 and Phe^19-Phe^20
NEPv: lead variant at round 2, human NEP ectodomain with the two mutations G399V and G714K (protein, UniProt P08473 52-750, looked up, variant G399V G714K, extracellular domain) extracellular domain: YDDGICKSSDCIKSAARLIQNMDATTEPCTDFFKYACGGWLKRNVIPETSSRYGNFDILRDELEVVLKDVLQEPKTEDIVAVQKAKALYRSCINESAIDSRGGEPLLKLLPDIYGWPVATENWEQKYGASWTAEKAIAQLNSKYGKKVLINLFVGTDDKNSVNHVIHIDQPRLGLPSRDYYECTGIYKEACTAYVDFMISVARLIRQEERLPIDENQLALEMNKVMELEKEIANATAKPEDRNDPMLLYNKMTLAQIQNNFSLEINGKPFSWLNFTNEIMSTVNISITNEEDVVVYAPEYLTKLKPILTKYSARDLQNLMSWRFIMDLVSSLSRTYKESRNAFRKALYVTTSETATWRRCANYVNGNMENAVGRLYVEAAFAGESKHVVEDLIAQIREVFIQTLDDLTWMDAETKKRAEEKALAIKERIGYPDDIVSNDNKLNNEYLELNYKEDEYFENIIQNLKFSQSKQLKKLREKVDKDEWISGAAVVNAFYSSGRNQIVFPAGILQPPFFSAQQSNSLNYGGIGMVIGHEITHGFDDNGRNFNKDGDLVDWWTQQSASNFKEQSQCMVYQYGNFSWDLAGGQHLNGINTLGENIADNGGLGQAYRAYQNYIKKNGEEKLLPGLDLNHKQLFFLNFAQVWCGTYRPEYAVNSIKTDVHSPKNFRIIGTLQNSAEFSEAFHCRKNSYMNPEKKCRVW | Phe^20-Ala^21
NEP G399V: single mutant G399V of the human NEP ectodomain (protein, UniProt P08473 52-750, looked up, variant G399V, extracellular domain, single mutant G399V of the human NEP ectodomain) extracellular domain: YDDGICKSSDCIKSAARLIQNMDATTEPCTDFFKYACGGWLKRNVIPETSSRYGNFDILRDELEVVLKDVLQEPKTEDIVAVQKAKALYRSCINESAIDSRGGEPLLKLLPDIYGWPVATENWEQKYGASWTAEKAIAQLNSKYGKKVLINLFVGTDDKNSVNHVIHIDQPRLGLPSRDYYECTGIYKEACTAYVDFMISVARLIRQEERLPIDENQLALEMNKVMELEKEIANATAKPEDRNDPMLLYNKMTLAQIQNNFSLEINGKPFSWLNFTNEIMSTVNISITNEEDVVVYAPEYLTKLKPILTKYSARDLQNLMSWRFIMDLVSSLSRTYKESRNAFRKALYVTTSETATWRRCANYVNGNMENAVGRLYVEAAFAGESKHVVEDLIAQIREVFIQTLDDLTWMDAETKKRAEEKALAIKERIGYPDDIVSNDNKLNNEYLELNYKEDEYFENIIQNLKFSQSKQLKKLREKVDKDEWISGAAVVNAFYSSGRNQIVFPAGILQPPFFSAQQSNSLNYGGIGMVIGHEITHGFDDNGRNFNKDGDLVDWWTQQSASNFKEQSQCMVYQYGNFSWDLAGGQHLNGINTLGENIADNGGLGQAYRAYQNYIKKNGEEKLLPGLDLNHKQLFFLNFAQVWCGTYRPEYAVNSIKTDVHSPGNFRIIGTLQNSAEFSEAFHCRKNSYMNPEKKCRVW | Phe^19-Phe^20
NEP G714K: single mutant G714K of the human NEP ectodomain (protein, UniProt P08473 52-750, looked up, variant G714K, extracellular domain, single mutant G714K of the human NEP ectodomain) extracellular domain: YDDGICKSSDCIKSAARLIQNMDATTEPCTDFFKYACGGWLKRNVIPETSSRYGNFDILRDELEVVLKDVLQEPKTEDIVAVQKAKALYRSCINESAIDSRGGEPLLKLLPDIYGWPVATENWEQKYGASWTAEKAIAQLNSKYGKKVLINLFVGTDDKNSVNHVIHIDQPRLGLPSRDYYECTGIYKEACTAYVDFMISVARLIRQEERLPIDENQLALEMNKVMELEKEIANATAKPEDRNDPMLLYNKMTLAQIQNNFSLEINGKPFSWLNFTNEIMSTVNISITNEEDVVVYAPEYLTKLKPILTKYSARDLQNLMSWRFIMDLVSSLSRTYKESRNAFRKALYGTTSETATWRRCANYVNGNMENAVGRLYVEAAFAGESKHVVEDLIAQIREVFIQTLDDLTWMDAETKKRAEEKALAIKERIGYPDDIVSNDNKLNNEYLELNYKEDEYFENIIQNLKFSQSKQLKKLREKVDKDEWISGAAVVNAFYSSGRNQIVFPAGILQPPFFSAQQSNSLNYGGIGMVIGHEITHGFDDNGRNFNKDGDLVDWWTQQSASNFKEQSQCMVYQYGNFSWDLAGGQHLNGINTLGENIADNGGLGQAYRAYQNYIKKNGEEKLLPGLDLNHKQLFFLNFAQVWCGTYRPEYAVNSIKTDVHSPKNFRIIGTLQNSAEFSEAFHCRKNSYMNPEKKCRVW | Leu^17-Val^18
